Laboratory results taken from patent publication US9192644B2, “Bioavailable curcuminoid formulations for treating Alzheimer's disease and other age-related disorders” (The Regents of the University of California, priority 2006, dated 2015).
At least one structure is not confirmed: it was looked up by name or label, or the drawing left a doubt.

Type: physicochemical
Settings: 25 micromolar curcumin, PBS pH 7.4, absorbance at 426 nm (FIG. 2)
Excerpt: Therefore, providing a curcuminoid-to-antioxidant ratio of about 10:1 or higher should be sufficient to prevent hydrolysis during absorption, and enhance bioavailability. […] Thus, additional antioxidant need not add prohibitively to the bulk of a formulation.

Q: With `COc1cc(CCC(=O)CC(=O)CCc2ccc(O)c(OC)c2)ccc1O` [TC, tetrahydrocurcumin] as the molecule, how does the retarding curcumin hydrolysis read?
A: Its retarding curcumin hydrolysis is “some protection against hydrolysis”.
